# Data as given in PubChem BioAssay AID652243 (Drosophila RNAi Screening Center, 2013)
# Test: 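Fly genes required for human androgen receptor driven transcription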 (primary screen)
# Cells: Drosophila S2R+ cells
# Reagent: long dsRNA against Drosophila genes
# Time to read-out: 72 h (48 h, then 24 h hormone)
# Challenge: synthetic androgen R1881 at 10 nM for 24 h
# Measurement: 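Per-well raw luminescence of the androgen-driven firefly reporter and of the Renilla control, two replicates each, without normalisation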
# Reading the numbers: firefly reporter light: higher = more light from androgen-responsive reporter; Renilla control light: higher = more constitutive control signal (cell number, transfection)
# Active means: 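Across duplicate plates, a knock-down whose log firefly/Renilla ratio shifted a set fold down or up from the GFP/LacZ control mean was a hit; the downward cut appears as both 1.5 and 3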
# Meaning of the calls: active = hit: reporter lowered or raised; inactive = no hit
# The screen tested about 24,000 reagents; below is a random part of those with a known target gene and a result. Of all reagents, 246 (1%) are marked active. 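Plates not normalised; calls are printed but the firefly/Renilla ratio behind them is not deposited; fold cut for lowering reported inconsistently.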 Raw values are not corrected between plates. The numbers tell different reagents against one gene apart. Names joined by + are all predicted targets of the reagent. Reagent sequences are not shown. Not given: the amount of reagent.
gene knocked down,reagent no.,"firefly reporter light, replicate 1","firefly reporter light, replicate 2","Renilla control light, replicate 1","Renilla control light, replicate 2",activity call
uri (unconventional prefoldin RPB5 interactor),1,9.29e5,6.33e5,1.17e6,1.07e6,inactive
uri (unconventional prefoldin RPB5 interactor),2,7.41e5,1.22e6,1.09e6,1.19e6,inactive
CG30339,1,1.56e5,2.10e5,1.89e5,2.25e5,inactive
Skp2 (S-phase kinase-associated protein 2),1,19194,31499,3.03e5,2.31e5,inactive
Skp2 (S-phase kinase-associated protein 2),2,4.91e5,4.67e5,1.82e6,1.61e6,inactive
CG7872,1,52741,40383,4.11e5,5.24e5,inactive
CG6678,1,1.01e5,1.22e5,6.81e5,8.56e5,inactive
CG6678,2,5.42e5,4.06e5,6.79e5,8.02e5,inactive
Ufm1 + mute,1,4.07e5,3.10e5,3.61e5,2.68e5,inactive
Vha100-1 (Vacuolar H[+] ATPase 100kD subunit 1),1,1.22e5,83565,6.71e5,4.41e5,inactive
Vha100-1 (Vacuolar H[+] ATPase 100kD subunit 1),2,2.18e5,2.08e5,9.30e5,7.09e5,inactive
Vha100-1 (Vacuolar H[+] ATPase 100kD subunit 1),3,5.29e5,4.91e5,1.79e6,1.72e6,inactive
Jon99Ciii (Jonah 99Ciii),1,72648,97197,1.23e6,1.70e6,inactive
Mrgn1 (Mahogunin ring finger 1),1,34160,28112,2.62e5,2.31e5,inactive
Octbeta3R (Octopamine beta3 receptor),1,31121,30165,1.00e6,1.15e6,inactive
Octbeta3R (Octopamine beta3 receptor),2,59642,43073,7.46e5,1.06e6,inactive
Octbeta3R (Octopamine beta3 receptor),3,8.27e5,8.57e5,1.40e6,1.54e6,inactive
Octbeta3R (Octopamine beta3 receptor),4,1.04e5,92199,4.41e5,7.84e5,inactive
Octbeta3R (Octopamine beta3 receptor),5,6.21e5,7.09e5,2.59e6,2.48e6,inactive
Octbeta3R (Octopamine beta3 receptor),6,1.10e6,8.45e5,7.67e5,7.97e5,inactive
Octbeta3R (Octopamine beta3 receptor),7,8.68e5,9.31e5,6.36e5,7.28e5,inactive
Octbeta3R (Octopamine beta3 receptor),8,3.83e5,3.01e5,6.39e5,4.93e5,inactive
Spn42Db (Serpin 42Db),1,1.68e5,1.25e5,1.24e6,8.13e5,inactive
CG33937 (retired record),1,1.64e5,2.10e5,3.29e6,3.02e6,inactive
hyd (hyperplastic discs),1,1.05e5,1.36e5,2.38e6,2.76e6,inactive
hyd (hyperplastic discs),2,4.66e5,6.63e5,9.89e5,1.70e6,inactive
RanGAP (Ran GTPase activating protein),1,7.76e5,6.91e5,3.61e5,2.55e5,inactive
RanGAP (Ran GTPase activating protein),2,4.64e5,5.13e5,1.05e6,1.05e6,inactive
ReepB (Receptor expression enhancing protein B),1,6.83e5,9.28e5,2.07e6,2.10e6,inactive
ReepB (Receptor expression enhancing protein B),2,2.35e5,2.52e5,4.28e5,4.76e5,inactive
CG9003,1,2.15e5,1.89e5,1.64e6,1.92e6,inactive

Laid out differently: 3 of the entries above.
Vha100-1 (Vacuolar H[+] ATPase 100kD subunit 1) #3 | firefly reporter light, replicate 1: 5.29e5; firefly reporter light, replicate 2: 4.91e5; Renilla control light, replicate 1: 1.79e6; Renilla control light, replicate 2: 1.72e6; activity call: inactive
Jon99Ciii (Jonah 99Ciii) | firefly reporter light, replicate 1: 72648; firefly reporter light, replicate 2: 97197; Renilla control light, replicate 1: 1.23e6; Renilla control light, replicate 2: 1.70e6; activity call: inactive
Mrgn1 (Mahogunin ring finger 1) | firefly reporter light, replicate 1: 34160; firefly reporter light, replicate 2: 28112; Renilla control light, replicate 1: 2.62e5; Renilla control light, replicate 2: 2.31e5; activity call: inactive

The results go on.
gene knocked down,reagent no.,"firefly reporter light, replicate 1","firefly reporter light, replicate 2","Renilla control light, replicate 1","Renilla control light, replicate 2",activity call
Nup54 (Nucleoporin 54kD),1,5.68e5,4.55e5,9.48e5,9.10e5,inactive
Pvf1 (PDGF- and VEGF-related factor 1),1,1.17e5,1.38e5,1.01e6,1.16e6,inactive
Pvf1 (PDGF- and VEGF-related factor 1),2,,,,,inactive
Pvf1 (PDGF- and VEGF-related factor 1),3,,,,,inactive
CG31735,1,1.92e5,1.74e5,4.00e5,4.65e5,inactive
CG31735,2,8.70e5,7.01e5,1.84e6,1.42e6,inactive
Dcr-1 (Dicer-1),1,74276,73935,7.21e5,8.59e5,inactive
Dcr-1 (Dicer-1),2,2.75e5,3.08e5,6.48e5,6.93e5,inactive
Rala (Ras-like protein A),1,3.42e5,2.90e5,3.66e6,3.02e6,inactive
Rala (Ras-like protein A),2,7.05e5,3.85e5,3.31e6,1.32e6,inactive
Tsp42Ed (Tetraspanin 42Ed),1,3.92e5,3.69e5,1.70e6,1.67e6,inactive
pk (prickle),1,8.50e5,6.94e5,1.53e6,1.67e6,inactive
pk (prickle),2,4.12e5,5.49e5,2.45e6,2.21e6,inactive
pk (prickle),3,4.54e5,2.74e5,5.70e5,3.51e5,inactive
Spn53F (Serpin 53F),1,1.03e5,81444,1.99e6,1.99e6,inactive
mIF2 + CR40068,1,9.16e5,9.58e5,1.39e6,1.32e6,inactive
CG10126,1,74202,1.03e5,4.24e5,6.79e5,inactive
CG7208,1,60559,1.01e5,6.81e5,1.09e6,inactive
CG7208,2,2.95e5,2.28e5,5.22e5,4.75e5,inactive
Egm (Enigma),1,1.09e6,1.03e6,2.73e6,3.46e6,inactive
Egm (Enigma),2,5.22e5,1.10e6,4.83e5,6.64e5,inactive
CG14257,1,1.76e5,1.36e5,2.73e6,2.69e6,inactive
CG14257,2,3.25e5,3.26e5,4.73e5,6.08e5,inactive
CG11396,1,1.34e5,94766,2.01e6,2.02e6,inactive
CG34437,1,8.25e5,7.32e5,1.63e6,1.38e6,inactive
CG18335,1,1.04e5,1.11e5,1.10e6,8.28e5,active
CG18335,2,4.67e5,3.32e5,1.22e6,1.22e6,inactive
